Patent publication US12214076B2, “Drug delivery vehicles for atherosclerosis nanomedicine” (Northwestern University, priority 2019, dated 2025)
At least one peptide structure holds a part that was inferred or is arguable (an end, a ring closure or a residue). Peptide text beside a SMILES is read from it.

Tested on: J774.2 murine macrophages
Assay: Nitric oxide production of stimulated macrophages
Type: cell-based, mouse
Conditions: 24 hours, LPS and stimulated, 32 μM Ac2-26 or epitope equivalent
Description: Macrophage culture and characterization: J774.2 murine macrophages (Sigma-Aldrich) were expanded at 4-9×10^5 cells/mL in growth media consisting of Dulbecco's Modified Eagle's Medium (Sigma-Aldrich) containing 4.5 g/L glucose, 2 mM L-glutamine, 10% v/v FBS, 100 U/m penicillin, and 100 μg/mL streptomycin. Cells were passaged using Accutase™ (StemCell Technologies) and used at passage 6-9 for all experiments. The cells were detached with Accutase™ and gentle scraping, counted, and re-suspended in flow cytometry buffer containing 2% w/v bovine serum albumin (BSA, heat shock fraction free of proteases, globulin, and fatty acids, Sigma-Aldrich) and 0.1% w/v sodium azide (Sigma-Aldrich). To minimize non-specific binding of immunoglobin to Fc receptors, macrophages were incubated with anti-mouse CD16/32 antibody (TrueStain FcX™, Biolegend) at 1 μg/1×10^5 cells for 10 minutes at 4° C. […] All samples were analyzed using Attune NxT Acoustic Focusing Cytometer (Thermo Fisher) with at least 2000 events counted per condition.
Therapeutic effects of ApoA1-Ac2-26 PAs: 10% ROS- and MMP-Ac2-26 PAs, as well as Ac2-26 peptide were added together with 10 μg/mL LPS at 32 μM Ac2-26 to macrophages. […] Concerning the quantification of NO, the reducing solution made of KI in acetic acid and water provides an excess of I− that reacts with nitrite yielding ·NO. […]

CC[C@H](C)[C@H](NC(=O)[C@H](Cc1ccccc1)NC(=O)[C@H](Cc1c[nH]c2ccccc12)NC(=O)[C@H](C)NC(=O)[C@H](CCC(N)=O)NC(=O)[C@H](CCCCN)NC(=O)[C@H](CC(C)C)NC(=O)[C@H](Cc1ccccc1)NC(=O)[C@H](CCC(=O)O)NC(=O)[C@H](CO)NC(=O)[C@@H](NC(=O)[C@H](CCSC)NC(=O)[C@H](C)NC(C)=O)C(C)C)C(=O)N[C@@H](CCC(=O)O)C(=O)N[C@@H](CC(N)=O)C(=O)N[C@@H](CCC(=O)O)C(=O)N[C@@H](CCC(=O)O)C(=O)N[C@@H](CCC(N)=O)C(=O)N[C@@H](CCC(=O)O)C(=O)N[C@@H](Cc1ccc(O)cc1)C(=O)N[C@H](C(=O)N[C@@H](CCC(N)=O)C(=O)N[C@H](C(=O)N[C@H](C(=O)N[C@@H](CCCCN)C(=O)O)C(C)C)[C@@H](C)O)C(C)C [Ac2-26] (Ac-AMVSEFLKQAWFIENEEQEYVQTVK-OH; N-terminus and C-terminus assumed)
macrophage activation, nitric oxide production relative to the stimulated control: significantly reduced
